{"sequences": {"note": "Protein sequences, listed by entry. Tags and fused reporters are not part of them. Lines headed by an entry give the natural chain unless they say otherwise; changes in a name come on top.", "UniProt Q92556": "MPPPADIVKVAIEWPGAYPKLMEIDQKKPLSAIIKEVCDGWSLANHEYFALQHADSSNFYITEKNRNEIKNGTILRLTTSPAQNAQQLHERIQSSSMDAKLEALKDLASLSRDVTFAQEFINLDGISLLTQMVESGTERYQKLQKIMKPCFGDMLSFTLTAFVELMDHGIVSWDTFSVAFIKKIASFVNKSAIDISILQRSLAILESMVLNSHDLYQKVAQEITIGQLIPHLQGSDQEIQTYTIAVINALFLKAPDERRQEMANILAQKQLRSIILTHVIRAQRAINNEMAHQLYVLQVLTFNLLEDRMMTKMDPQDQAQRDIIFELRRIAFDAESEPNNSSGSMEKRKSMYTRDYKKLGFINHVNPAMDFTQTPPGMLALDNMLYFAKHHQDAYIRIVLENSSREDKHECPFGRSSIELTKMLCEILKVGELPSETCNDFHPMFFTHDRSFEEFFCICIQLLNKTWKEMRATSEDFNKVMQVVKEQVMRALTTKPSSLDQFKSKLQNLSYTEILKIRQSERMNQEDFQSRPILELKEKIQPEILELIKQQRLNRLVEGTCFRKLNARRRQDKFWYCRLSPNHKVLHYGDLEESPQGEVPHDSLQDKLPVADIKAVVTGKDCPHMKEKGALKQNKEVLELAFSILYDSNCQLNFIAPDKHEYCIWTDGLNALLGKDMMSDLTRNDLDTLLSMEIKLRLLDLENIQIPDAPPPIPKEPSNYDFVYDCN"}, "source": "paper PMC5493634", "about": "“Intermolecular steric inhibition of Ephexin4 is relieved by Elmo1” (Scientific Reports, 2017)", "key": {"SH3 domain of Ephexin4": {"target": "T1, SH3 domain of Ephexin4 (UniProt Q5VV41)", "T1 sequence": "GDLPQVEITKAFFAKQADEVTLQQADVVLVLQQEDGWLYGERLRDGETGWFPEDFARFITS", "assay": "pull-down; 293T cells co-transfected; lysates precipitated with glutathione–Sepharose beads, 2 h at 4 °C; co-precipitated proteins detected with anti-GFP (Fig. 3a,d) or anti-FLAG (Fig. 3b,c, 4a)"}, "[1]": {"target": "T2, Ephexin4 (full-length, wild type) (UniProt Q5VV41)", "T2 sequence": "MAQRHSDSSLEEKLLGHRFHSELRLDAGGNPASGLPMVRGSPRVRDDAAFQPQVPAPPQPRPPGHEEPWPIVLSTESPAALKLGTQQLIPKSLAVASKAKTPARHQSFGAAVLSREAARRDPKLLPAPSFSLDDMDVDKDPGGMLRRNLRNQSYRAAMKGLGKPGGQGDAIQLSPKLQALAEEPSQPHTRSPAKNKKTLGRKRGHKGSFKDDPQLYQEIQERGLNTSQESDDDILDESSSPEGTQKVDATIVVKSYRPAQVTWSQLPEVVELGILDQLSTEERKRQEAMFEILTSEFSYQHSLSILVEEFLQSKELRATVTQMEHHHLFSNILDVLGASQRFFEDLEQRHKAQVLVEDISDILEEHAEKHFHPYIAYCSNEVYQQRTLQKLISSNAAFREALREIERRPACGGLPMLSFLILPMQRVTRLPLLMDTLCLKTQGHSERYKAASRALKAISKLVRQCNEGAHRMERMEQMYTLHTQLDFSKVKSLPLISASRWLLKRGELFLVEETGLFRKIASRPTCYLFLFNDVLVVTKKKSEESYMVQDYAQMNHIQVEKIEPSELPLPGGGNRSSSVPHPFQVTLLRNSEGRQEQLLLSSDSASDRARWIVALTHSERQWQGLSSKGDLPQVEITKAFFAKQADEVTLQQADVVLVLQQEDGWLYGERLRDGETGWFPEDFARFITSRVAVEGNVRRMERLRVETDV", "assay": "co-IP; 293T cells co-transfected; anti-FLAG immunoprecipitation of lysates (1% Triton X-100, 150 mM NaCl, pH 7.6), 2 h at 4 °C; anti-GFP immunoblot (Fig. 2a-c)"}, "[2]": {"target": "T3, N20 region of Ephexin4 (amino acids 224–378) (UniProt Q5VV41)", "T3 sequence": "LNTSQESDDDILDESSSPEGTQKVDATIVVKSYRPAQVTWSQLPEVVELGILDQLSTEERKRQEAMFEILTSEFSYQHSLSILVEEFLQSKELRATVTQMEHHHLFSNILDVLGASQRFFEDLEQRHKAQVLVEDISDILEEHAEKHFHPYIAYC", "assay": "pull-down; 293T cells co-transfected; lysates precipitated with glutathione–Sepharose beads, 2 h at 4 °C; co-precipitated proteins detected with anti-GFP (Fig. 3a,d) or anti-FLAG (Fig. 3b,c, 4a)"}}, "note": "These are yes or no findings as the source states them, for the method shown. In cells and extracts the contact can be indirect. Binding calls can cover weak binding; strength is not graded here.", "data": [{"substance": "C-terminus of Elmo1 (from UniProt Q92556) (domain or fragment)", "values": [{"measurement": "binding", "setting": "SH3 domain of Ephexin4", "result": "binds"}]}, {"substance": "Ephexin4^ΔSH3 (Ephexin4 mutant lacking the SH3 domain) (domain or fragment)", "values": [{"measurement": "binding", "setting": "[1]", "result": "binds weakly"}]}, {"substance": "N-terminus of Elmo1 (from UniProt Q92556) (domain or fragment)", "values": [{"measurement": "binding", "setting": "[2]", "result": "binds"}]}]}
